Results: publication PMC10240827
No constants are given. Whether binding was seen depends on the method and setting. Binding seen in cells or lysates may run through a third protein. Some entries that bind do so weakly or less than the wild type.

The chains behind the UniProt entries cited, without tags or fusion partners. Residues count along the entry.
UniProt Q9QUK6, residues 26-835: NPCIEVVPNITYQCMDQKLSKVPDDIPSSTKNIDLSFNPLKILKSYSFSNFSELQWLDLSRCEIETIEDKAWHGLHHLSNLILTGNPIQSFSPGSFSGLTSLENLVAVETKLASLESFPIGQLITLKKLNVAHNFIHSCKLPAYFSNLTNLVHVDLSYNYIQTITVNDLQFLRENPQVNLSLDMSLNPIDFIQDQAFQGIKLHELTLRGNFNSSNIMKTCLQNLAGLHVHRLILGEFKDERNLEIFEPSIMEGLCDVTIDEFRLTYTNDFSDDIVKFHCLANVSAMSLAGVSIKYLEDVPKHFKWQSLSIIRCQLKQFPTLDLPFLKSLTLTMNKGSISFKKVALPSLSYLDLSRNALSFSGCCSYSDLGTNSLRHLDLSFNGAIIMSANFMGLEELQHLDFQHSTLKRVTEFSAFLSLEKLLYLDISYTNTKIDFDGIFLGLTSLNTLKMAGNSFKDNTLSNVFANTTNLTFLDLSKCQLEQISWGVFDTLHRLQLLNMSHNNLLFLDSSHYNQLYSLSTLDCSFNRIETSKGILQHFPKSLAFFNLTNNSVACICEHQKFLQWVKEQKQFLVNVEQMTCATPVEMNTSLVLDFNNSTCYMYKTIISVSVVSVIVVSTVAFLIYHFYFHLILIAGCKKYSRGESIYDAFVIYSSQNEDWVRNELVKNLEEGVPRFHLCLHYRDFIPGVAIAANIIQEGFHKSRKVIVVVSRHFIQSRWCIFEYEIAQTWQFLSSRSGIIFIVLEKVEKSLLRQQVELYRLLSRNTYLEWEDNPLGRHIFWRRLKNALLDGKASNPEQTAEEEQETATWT
UniProt P63158: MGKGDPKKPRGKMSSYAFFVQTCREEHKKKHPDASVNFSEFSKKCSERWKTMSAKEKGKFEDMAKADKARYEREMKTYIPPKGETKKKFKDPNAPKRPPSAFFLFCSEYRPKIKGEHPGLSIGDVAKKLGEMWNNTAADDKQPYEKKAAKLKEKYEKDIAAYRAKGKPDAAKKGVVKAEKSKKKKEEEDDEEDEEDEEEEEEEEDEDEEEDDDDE

Molecular target: Toll-like receptor 4 (TLR4) (mouse (endogenous in BUMPT)) (UniProt Q9QUK6)
Assay: co-IP; lysate of RLDC-treated BUMPT cells (150 mM NaCl, 5% glycerol, 50 mM Tris HCl pH 8.0, 1 mM MgCl2, 1.0% NP40); precipitated with anti-HMGB1, anti-TLR4 or control IgG overnight at 4 °C, Protein A/G PLUS-Agarose; immunoblot

## high-mobility group box 1 (HMGB1) (from UniProt P63158 1-215)
  binding: binds
